From the supplement of paper PMC6411743
± gives the standard deviation of the averaged measurements. The list shows a part of the results.

Protein sequences, listed by entry. Tags and fused reporters are not part of them. Lines headed by an entry give the natural chain unless they say otherwise; changes in a name come on top.
UniProt P0C1Z6, whole entry: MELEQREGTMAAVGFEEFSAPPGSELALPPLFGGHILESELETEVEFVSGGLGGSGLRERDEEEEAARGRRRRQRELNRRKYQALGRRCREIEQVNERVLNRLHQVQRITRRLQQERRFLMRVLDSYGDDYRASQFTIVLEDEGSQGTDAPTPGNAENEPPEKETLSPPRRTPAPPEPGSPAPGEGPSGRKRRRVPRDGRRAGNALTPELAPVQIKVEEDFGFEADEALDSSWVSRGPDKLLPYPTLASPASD
UniProt P30519: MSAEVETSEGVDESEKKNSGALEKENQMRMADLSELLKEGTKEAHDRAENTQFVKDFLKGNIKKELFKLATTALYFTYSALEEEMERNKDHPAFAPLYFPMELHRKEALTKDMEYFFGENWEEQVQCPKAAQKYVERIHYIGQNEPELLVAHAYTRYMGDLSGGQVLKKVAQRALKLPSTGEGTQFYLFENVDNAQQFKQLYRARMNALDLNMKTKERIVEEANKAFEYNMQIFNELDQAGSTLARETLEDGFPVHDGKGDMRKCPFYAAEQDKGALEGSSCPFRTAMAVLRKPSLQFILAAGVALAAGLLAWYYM
UniProt Q96FV9: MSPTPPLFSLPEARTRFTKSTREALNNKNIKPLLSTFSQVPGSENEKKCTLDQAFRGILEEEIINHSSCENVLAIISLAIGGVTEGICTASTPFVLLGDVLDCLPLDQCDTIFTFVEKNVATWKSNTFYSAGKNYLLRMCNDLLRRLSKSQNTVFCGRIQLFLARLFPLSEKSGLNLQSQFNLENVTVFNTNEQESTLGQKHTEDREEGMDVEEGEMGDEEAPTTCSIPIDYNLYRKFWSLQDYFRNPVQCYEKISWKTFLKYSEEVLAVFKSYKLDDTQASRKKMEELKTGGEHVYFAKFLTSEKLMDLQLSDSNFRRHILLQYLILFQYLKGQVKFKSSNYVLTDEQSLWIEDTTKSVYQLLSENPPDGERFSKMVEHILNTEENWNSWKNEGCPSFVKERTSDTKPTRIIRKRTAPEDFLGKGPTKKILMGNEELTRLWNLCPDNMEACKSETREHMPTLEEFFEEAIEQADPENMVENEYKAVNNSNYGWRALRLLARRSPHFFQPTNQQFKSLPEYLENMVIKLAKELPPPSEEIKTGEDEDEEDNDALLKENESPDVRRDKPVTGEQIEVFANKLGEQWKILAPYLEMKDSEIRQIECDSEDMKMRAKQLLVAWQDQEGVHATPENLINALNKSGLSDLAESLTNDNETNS
UniProt Q99460, whole entry: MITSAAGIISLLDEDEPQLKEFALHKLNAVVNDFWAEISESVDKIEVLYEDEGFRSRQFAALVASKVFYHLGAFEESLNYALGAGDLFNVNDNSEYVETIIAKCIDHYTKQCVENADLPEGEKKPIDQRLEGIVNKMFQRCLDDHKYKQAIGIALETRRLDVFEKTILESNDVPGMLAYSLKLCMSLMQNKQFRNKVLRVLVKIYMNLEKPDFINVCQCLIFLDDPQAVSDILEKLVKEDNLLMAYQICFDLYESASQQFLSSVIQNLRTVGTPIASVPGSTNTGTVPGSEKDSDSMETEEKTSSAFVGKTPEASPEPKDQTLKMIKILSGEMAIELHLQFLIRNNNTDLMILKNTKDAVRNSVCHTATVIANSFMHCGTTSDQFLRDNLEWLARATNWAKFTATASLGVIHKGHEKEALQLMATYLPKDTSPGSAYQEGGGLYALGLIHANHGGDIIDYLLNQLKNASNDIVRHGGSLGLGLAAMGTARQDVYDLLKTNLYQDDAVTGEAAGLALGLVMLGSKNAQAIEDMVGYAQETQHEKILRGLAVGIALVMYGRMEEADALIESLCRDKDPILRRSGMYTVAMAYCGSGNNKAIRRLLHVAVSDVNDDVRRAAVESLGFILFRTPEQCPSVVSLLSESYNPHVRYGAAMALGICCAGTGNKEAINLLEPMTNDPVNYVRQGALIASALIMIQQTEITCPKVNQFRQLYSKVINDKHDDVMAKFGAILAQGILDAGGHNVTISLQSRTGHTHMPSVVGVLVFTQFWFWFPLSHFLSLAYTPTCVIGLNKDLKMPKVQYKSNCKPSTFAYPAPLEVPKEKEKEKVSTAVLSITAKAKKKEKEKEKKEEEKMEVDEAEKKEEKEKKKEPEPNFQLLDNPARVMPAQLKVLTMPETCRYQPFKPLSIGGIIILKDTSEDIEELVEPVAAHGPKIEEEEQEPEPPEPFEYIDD

Compound: Nc1nc2c(ncn2[C@@H]2O[C@H](COP(=O)(O)OP(=O)(O)OP(=O)(O)O)[C@@H](O)[C@H]2O)c(=O)[nH]1 [guanosine triphosphate]
Assay: NP40-soluble protein abundance relative to vehicle (solubility fold change) (ratio); higher = more soluble protein in presence of GTP
Experimental: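 Solubility proteome profiling in Jurkat crude lysate. Lysate was treated with Mg-GTP (0.1-10 mM) for 10 min at room temperature and 3 min at 37 °C, then solubilised with 0.8% NP40 and benzonase, followed by ultracentrifugation. Proteins were quantified by TMT10 LC-MS/MS; the value is the NP40-soluble abundance relative to the NP40-processed vehicle, from 3 independent experiments.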

Target	NP40-soluble protein abundance (concentration: 0.1mM)	NP40-soluble protein abundance (concentration: 0.5mM)	NP40-soluble protein abundance (concentration: 1mM)	NP40-soluble protein abundance (concentration: 2mM)	NP40-soluble protein abundance (concentration: 4mM)	NP40-soluble protein abundance (concentration: 6mM)	NP40-soluble protein abundance (concentration: 8mM)	NP40-soluble protein abundance (concentration: 10mM)
A0A024R4Q5|G5E9B5 and related entries (UniProt P0C1Z6)	1.12 ± 0.14	1.05 ± 0.099	1.09 ± 0.17	1.16 ± 0.21	1.15 ± 0.25	1.2 ± 0.13	1.21 ± 0.19	1.18 ± 0.14
A0A087WT44|P30519 and related entries (UniProt P30519)	0.916 ± 0.059	0.91 ± 0.071	0.954 ± 0.074	0.909 ± 0.1	0.9 ± 0.094	0.893 ± 0.098	0.887 ± 0.075	0.894 ± 0.077
A0A087WV52|Q9NP92 (UniProt Q9NP92)	1.15 ± 0.15	1.32 ± 0.29	1.35 ± 0.39	1.55 ± 0.53	1.59 ± 0.62	1.55 ± 0.58	1.54 ± 0.6	1.37 ± 0.52
A0A087WWS1|Q96FV9 (UniProt Q96FV9)	1.1 ± 0.016	1.24 ± 0.086	1.41 ± 0.19	1.76 ± 0.41	2.08 ± 0.62	2.26 ± 0.76	2.37 ± 0.83	2.4 ± 0.91
A0A087WW66|Q99460 (UniProt Q99460)	1.02 ± 0.089	1.09 ± 0.13	1.04 ± 0.15	1.11 ± 0.19	1.09 ± 0.15	1.12 ± 0.2	1.1 ± 0.19	1.08 ± 0.19
